# Data published in PubChem BioAssay AID1347421 (Sanford-Burnham Center for Chemical Genomics, 2020).
# Amino acid sequences for entries named in this document (tags omitted). A change or cut given only in a name is not applied to a line headed by its entry.
# UniProt O00391: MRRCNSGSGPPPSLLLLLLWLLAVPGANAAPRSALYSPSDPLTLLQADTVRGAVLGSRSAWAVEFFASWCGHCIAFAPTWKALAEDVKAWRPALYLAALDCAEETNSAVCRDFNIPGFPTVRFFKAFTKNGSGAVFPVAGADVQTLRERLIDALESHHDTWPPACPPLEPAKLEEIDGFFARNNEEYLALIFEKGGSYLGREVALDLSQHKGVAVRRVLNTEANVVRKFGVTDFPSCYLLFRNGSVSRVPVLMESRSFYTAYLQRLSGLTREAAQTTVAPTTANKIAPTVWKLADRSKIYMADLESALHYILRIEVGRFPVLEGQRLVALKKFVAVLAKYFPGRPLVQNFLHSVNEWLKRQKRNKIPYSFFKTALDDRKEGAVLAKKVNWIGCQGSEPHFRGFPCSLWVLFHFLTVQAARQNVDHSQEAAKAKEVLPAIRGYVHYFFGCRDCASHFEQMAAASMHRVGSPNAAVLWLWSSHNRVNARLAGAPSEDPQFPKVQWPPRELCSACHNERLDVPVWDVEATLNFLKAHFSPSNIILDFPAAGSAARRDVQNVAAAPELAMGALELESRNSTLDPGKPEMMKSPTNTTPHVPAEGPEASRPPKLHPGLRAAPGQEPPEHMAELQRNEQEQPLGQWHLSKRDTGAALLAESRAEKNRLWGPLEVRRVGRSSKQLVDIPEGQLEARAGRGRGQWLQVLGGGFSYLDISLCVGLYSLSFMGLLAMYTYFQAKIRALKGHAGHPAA
# The full ranking holds about 1,500 compounds; the median of “activity” is about 2, and the lowest 2% start at about -18. Some of the results follow. Active and inactive are the calls of the source.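 The calls were made as follows: active = inhibition of at least 40% at 10 µM; inconclusive = no clear call, values can overlap the other calls; inactive = the rest.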
# Target: Sulfhydryl oxidase 1 (Homo sapiens) (UniProt O00391)
# Experiment: QSOX1 enzyme inhibitors, confirmation, biochemical, ROS-Glo luminescence, single concentration (AID 1347421);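 also: 0% = DMSO wells with enzyme and 100% = wells lacking QSOX1 enzyme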
# Conditions: recombinant hQSOX1, RNase A substrate, ROS-Glo H2O2 luminescence; at 10 µM
row,Compound,activity
1,CC(C)S(=O)(=O)c1ncc(CN(C)Cc2nccs2)n1Cc1ccccc1F,3.2%
2,COc1ccc(CC2CN(C(=O)Cc3cccnc3)CCO2)cc1 (centres undefined),2%
3,O=C1COc2ccc(S(=O)(=O)N3CCc4ccccc43)cc2N1,2.6%
4,CN(CC(=O)NC1CCCN(CCc2ccccc2)C1)Cc1ccccn1 (centres undefined),1.3%
5,Nc1cc(=O)[nH]c(SCCOc2cccc(Cl)c2)n1,inactive: -6.4%
6,CCN1CCCC1CNC(=O)CCC1CCN(Cc2cc(OC)c3c(c2)OCO3)CC1 (centres undefined),0.6%
7,CCOc1cc(CN2CCC(CCC(=O)NCC3CCCO3)CC2)ccc1OC (centres undefined),inactive: -3.8%
8,CC(=O)c1ccc(N2CCN(C(=O)c3cn(C4CCCCC4)nn3)CC2)cc1,2.9%
9,CCn1cc(CN2CCC3(CCCN(Cc4ccc(F)cc4)C3=O)C2)cn1 (centres undefined),2%
10,C1=CCC(NCc2ccc(-c3ccn(CCCc4cccnc4)n3)o2)C1,5.9%
11,CCN1CCN(CC(O)COc2cccc(CNCCc3c(C)n[nH]c3C)c2)CC1 (centres undefined),6.2%
12,Cc1occc1C(=O)NC1CC(=O)N(Cc2ccccc2C(F)(F)F)C1 (centres undefined),1.2%
13,Cc1cccc2c3c([nH]c12)CCN(CC1(O)CCCN(C)C1=O)C3 (centres undefined),0.7%
14,O=C1N(CC2CCC2)CCCC12CCN(Cc1ccc(F)cc1F)C2 (centres undefined),4.1%
15,COc1ccc(CNCCc2scnc2C)c(OCC(O)CN2CCCC2)c1 (centres undefined),5%
16,CCN(CC)C1CCN(C(=O)c2ccc(OC3CCN(C(=O)CCOC)CC3)cc2)C1 (centres undefined),4%
17,Fc1ccccc1CN1CCCC(NCc2cccn2-c2nccs2)C1 (centres undefined),3.4%
18,O=C1O[C@@H]2CN(C/C=C/c3ccccc3)C[C@@H]2N1Cc1ccccn1,inactive: -4%
19,CC(C)n1cc(CNC(=O)Nc2nnc(Cc3ccccc3)s2)cn1,inactive: -2.1%
20,COc1ccc(CNc2ccc(S(N)(=O)=O)cc2)cc1OC,5.4%
21,O=C(NCCCOc1cccnc1)C1CCC(=O)N(CCCc2ccccc2)C1 (centres undefined),12.4%
22,Cc1occc1-c1nnc2n1N=C(c1ccccc1)CS2,inactive: -19.7%
23,CCC1=[C+]c2c(NCc3cccnc3)nc(C)nc2S1,inactive: -5.8%

# Ordered by SMILES length (ascending): some entries from above
row,Compound,activity
5,Nc1cc(=O)[nH]c(SCCOc2cccc(Cl)c2)n1,inactive: -6.4%
20,COc1ccc(CNc2ccc(S(N)(=O)=O)cc2)cc1OC,5.4%
19,CC(C)n1cc(CNC(=O)Nc2nnc(Cc3ccccc3)s2)cn1,inactive: -2.1%
7,CCOc1cc(CN2CCC(CCC(=O)NCC3CCCO3)CC2)ccc1OC (centres undefined),inactive: -3.8%
12,Cc1occc1C(=O)NC1CC(=O)N(Cc2ccccc2C(F)(F)F)C1 (centres undefined),1.2%
8,CC(=O)c1ccc(N2CCN(C(=O)c3cn(C4CCCCC4)nn3)CC2)cc1,2.9%

# Additional results.

row,Compound,activity
1,COc1ccc(NC(=O)CCc2ccccc2F)c(C)c1,inactive: -11.4%
2,CCn1ccc(C(=O)N2CCN(Cc3ccc(Cl)c(Cl)c3)CC2)n1,inactive: -2.7%
3,Cc1c(Cc2ccccc2)sc(NC(=O)c2cccnc2)c1C(N)=O,inactive: -12.9%
4,C=CCNCC1=CC(OC)=C(OC)[C+]=C1OC,inactive: -0.7%
5,Cc1ccc(OCCN(C)C(=O)C2CCC(=O)N(CCCN3CCOCC3)C2)cc1 (centres undefined),5.4%
6,COc1cc(C(=O)O)cc(Cl)c1OCc1ccccc1,inactive: -7.1%
7,Cc1cc(S(=O)(=O)n2ccnc2)c(C)c(C)c1C,inactive: -0.1%
8,COc1cccc(C(=O)NCC2CCCN(C3CCC3)C2)c1OC (centres undefined),7.9%
9,Cc1ccc(S(=O)(=O)c2ncsc2Cl)cc1,0.6%
10,COc1ccc(CC2CN(C(=O)c3cccc(N(C)C)c3)CCO2)cc1 (centres undefined),6.9%
11,COCCN1CCC(CN(Cc2ccncc2)Cc2ccsc2)CC1,3.4%
12,CCOC(=O)N1CCN(C(=O)NS(=O)(=O)c2ccc(C)cc2)CC1,inactive: -16.9%
13,CSc1ccccc1C(=O)NC1CC(=O)N(CCCc2ccccc2)C1 (centres undefined),0.3%
14,CSc1nc(C(=O)N(C)C2CCCN(CCc3ccccc3)C2)cs1 (centres undefined),inactive: -2%
15,Cc1ccc(NC(=O)c2cc(C)c(C)o2)cc1C,inactive: -0.4%
16,Cc1ccc(Cl)cc1NC(=O)N1CCCCCC1,inactive: -2.1%
17,COc1ccc(NC(=O)CCC2CCCN(C(=O)C3=C(C)OCCO3)C2)c(C)c1 (centres undefined),2.7%
18,COc1c(C)cc(C(=O)C2CCCN(S(=O)(=O)N(C)C)C2)cc1C (centres undefined),3.2%
19,COCCC(=O)N1CCC(Oc2ccc(C(=O)NC3CCOC3)cc2)CC1 (centres undefined),9%
20,COc1cc(CNC2CCCCCC2)ccc1OCC(O)CN1CCOCC1 (centres undefined),inactive: -2.1%
21,COc1cc(CN2CCCN(C(C)=O)CC2)ccc1OCC(O)CN(C)C1CCCCC1 (centres undefined),1.5%
22,Cc1cc(OCc2ccc(C(=O)N3CCCC3)cc2)ccc1Cl,active: 50.6%
23,CCN(CC)C(=O)NCc1ccc2c(c1)OCO2,inactive: -18.4%

row,Compound,activity
1,O=C(NCc1ccco1)c1ccccc1OC1CCN(C(=O)c2cccnc2)CC1,inactive: -0.5%
2,Cc1ncc(CN2CCC3(CCCN(Cc4cccc(F)c4F)C3=O)C2)n1C (centres undefined),1.3%
3,COc1cc(CNCc2ccc(C)s2)ccc1OCC(O)CN(C)C(C)C (centres undefined),1.3%
4,O=C(CN1C(=O)CCNC1=O)N1CCC(OCc2ccccc2)CC1,2.9%
5,Cc1cc(C)c(Cn2cncn2)cc1CN1CCc2[nH]nc(-c3ccco3)c2C1,inactive: -5.3%
6,CCNC(=O)c1ccc(NS(=O)(=O)c2cccs2)cc1,14.1%
7,CC(C)CCCC1CN(C(=O)CCC(N)=O)CCO1 (centres undefined),6.8%
8,CCN(CC)C(=O)N(CC)Cc1ccccc1,inactive: -0.2%
9,Fc1ccccc1-c1noc2c1CN(Cc1cccc3c1OCO3)CC2,4.8%
10,O=C(c1ccsc1)N1CCCC(N2CCN(c3ccccc3F)CC2)C1 (centres undefined),2.1%
11,COc1cc(CNC2CC(=O)N(Cc3ccc(F)cc3)C2)ccc1F (centres undefined),4.7%
12,COc1cc(-c2cnn(CC(=O)Nc3ccnn3-c3ccccc3)c2)ncn1,1%
13,Cc1nccn1CC1CCCN(C(=O)Nc2nnc(Cc3ccccc3)s2)C1 (centres undefined),inactive: -1.8%
14,OC(COc1ccccc1CNCCc1cnccn1)CN1CCSCC1 (centres undefined),7.9%
15,CN(C)CCC1CN(C(=O)C#Cc2ccccc2)CCO1 (centres undefined),inactive: -0.3%
16,Cc1ccccc1CNCC1(O)CCCN(CC(C)(C)C)C1=O (centres undefined),7.2%
17,COc1ccccc1CCCNC(=O)C1CCC(=O)N(CCCN2CCCC2=O)C1 (centres undefined),1.1%
18,COc1cccc(CC2CN(CCCSC)CCO2)c1 (centres undefined),1.7%
19,CC(=O)NC1CC(C)(C)Cc2c1cnn2-c1cccc(F)c1 (centres undefined),5.6%
20,COc1ccc(NC(=O)NCCN2CCN(c3cc(OC)ccc3OC)CC2)cc1,inactive: -1.7%
21,CC(C)c1ccc(CN2CCCC3(CCN(C(=O)Cn4cccn4)C3)C2=O)cc1 (centres undefined),0.8%
22,COc1cc(CN(C)Cc2c(C)n[nH]c2C)ccc1OCC(O)CN(C)C(C)C (centres undefined),0.8%
23,CN1CCCCCC1C(=O)N1CCC(CCC(=O)Nc2ccccc2)CC1 (centres undefined),3.9%
